No constants are given. Whether binding was seen depends on the method and setting. In cells and extracts the contact can be indirect. These calls come from enrichment with a bait or labelling near it, and not all partners need be listed.
Target: LINE-1 ORF1p (mouse) (mouse (endogenous in MN9D)) (UniProt P11260)
Assay: affinity purification with mass spectrometry; IP of endogenous ORF1p with antibody-coupled Dynabeads from sonicated lysate of differentiated MN9D neurons (day 10), against rabbit IgG, n = 5 IPs; 10 mM Tris HCl pH 8, 150 mM NaCl, overnight 4°C; on-bead digest, LC-MS/MS (DIA), label-free quantification; ratio ≥2, P ≤0.05

Amino acid sequences for entries named in this document (tags omitted). A change or cut given only in a name is not applied to a line headed by its entry.
UniProt P11260: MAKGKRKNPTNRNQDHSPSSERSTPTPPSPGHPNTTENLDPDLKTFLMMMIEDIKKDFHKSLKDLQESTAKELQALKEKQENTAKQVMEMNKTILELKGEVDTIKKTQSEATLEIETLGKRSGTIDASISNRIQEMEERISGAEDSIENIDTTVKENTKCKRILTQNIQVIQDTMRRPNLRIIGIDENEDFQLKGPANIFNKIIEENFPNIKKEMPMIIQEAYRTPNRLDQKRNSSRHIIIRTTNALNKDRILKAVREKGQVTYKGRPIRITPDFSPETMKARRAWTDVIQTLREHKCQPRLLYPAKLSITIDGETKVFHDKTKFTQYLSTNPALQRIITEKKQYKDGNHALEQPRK

B1: MLF2 (mouse) (protein, UniProt Q99KX1 1-247)
chain: MFRFMRDVEPEDPMFLMDPFAIHRQHMSRMLSGGFGYSPFLSITDGNMPATRPASRRMQAGAVSPFGMLGMSGGFMDMFGMMNDMIGNMEHMAAGGNCQTFSSSTVISYSNTGDGAPKVYQETSEMRSAPGGIRETRRTVRDSDSGLEQMSIGHHIRDRAHILQRSRNHRTGDQEERQDYINLDESEAAAFDDEWRRETSRYRQQRPLEFRRHEASVGGGRRAEGPPRLAIQGPEDSPSRQSRRYDW
  binding: binds

B2: PRKRA (mouse) (protein, UniProt Q9WTX2 1-313)
chain: MSHSRHRAEAPPLQREDSGTFSLGKMITAKPGKTPIQVLHEYGMKTKNIPVYECERSDVQVHVPTFTFRVTVGDITCTGEGTSKKLAKHRAAEAAINILKANASICFAVPDPLMPDPSKQPKNQLNPIGSLQELAIHHGWRLPEYTLSQEGGPAHKREYTTICRLESFMETGKGASKKQAKRNAAEKFLAKFSNISPENHISLTNVVGHSLGCTWHSLRNSPGEKINLLKRSLLSLPNTDYIQLLSEIASEQGFNITYLDIEELSANGQYQCLAELSTSPITVCHGSGISCGNAQSDAAHNALQYLKIIAERK
  binding: binds

B3: ZNF281 (mouse) (protein, UniProt Q99LI5 1-893)
chain: MKIGSGFLSGGGGPSSSGGSGSGGSSGSASGGSGGGRRAEMEPTFPQSMVMFNHRLPPVTSFTRPAGTAAPPPQCVLSSSTSAAPAAEPPPPPAPDMTFKKEPAASAAAFPSQRTSWGFLQSLVSIKQEKPADPEEQPSHHHHHHHHYGGLFAGAEERSPGLGGGEGGSHGVIQDLSLLHQHAQQQPAQHHRDVLLSSGSRTDEHGNQEPKQDANVKKAKRPKPESQGIKAKRKPSASSKPLVGEGEGAVLSPSQKPHICDHCSAAFRSSYHLRRHVLIHTGERPFQCSQCSMGFIQKYLLQRHEKIHSREKPFGCDQCSMKFIQKYHMERHKRTHSGEKPYKCDTCQQYFSRTDRLLKHRRTCGEAIAKGAASAEPGSSNHNSMGNLAVLSQGNTSSSRRKSKSKSIAIENKEHKTGKTNESQMSNNINMQSYSVEMPTVSTSGSIIGTGIDELQKRVPKLIFKKGSRKNADKSYLNFVSPLPDVVGQKSLSGKPGGSLGIVSNNSVETISLLQSTSGKQGPISSNYDDAMQFSKKRRYLPTASSNSAFSINVGHMVSQQSVIQSAGVSVLDNEAPLSLIDSSALNAEIKSCHDKSGIPDEVLQSILDQYSGKSETQKEDPFNLTEPRVDLHTSGEHSELVQEENLSPGTQTPSNDKTSMLQEYSKYLQQAFEKSTNAGFTLGHGFQFVSLSSPLHNHTLFPEKQIYTTSPLECGFGQSVTSVLPSSLPKPPFGMLFGSQPGLYLSALDATHQQLTPSQELDDLIDSQKNLETSSAFQSSSQKLTSQKEQQKNLESSTSFQIPSQELASQIDPQKDIEPRTTYQIENFAQAFGSQFKSGSRVPMTFITNSNGEVDHRVRTSVSDFSGYTNMMSDVSEPCSTRVKTPTSQSYR
  binding: binds
